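Potency is fitted from the concentration series in HCT-116 p53 reporter cells, read as a beta-lactamase fluorescence ratio at 16 h.
The concentration series mostly goes up to 66 µM.
Potency is the fitted concentration that gives half the maximal activation; a lower value means a more potent compound.
Calls are based on the whole dose curve, and inconclusive means weak or mixed curves.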

Values are in µM.
All entries here are filed as inconclusive.
Only part of the assay is shown, chiefly results filed as inconclusive.
A potency from a partial, single-point or poor curve is only a rough figure.
Some entries filed as inconclusive have a full curve.
The first word of each remark tells which way the curve ran; it can be opposite to the aim of the assay.

CCCCCCCCCCCCCCn1cc[n+](C)c1 gave Potency 51.44 µM.
C=CC(=O)NCNC(=O)C=C gave Potency 51.34 µM (rising, single point).
O[C@@H](c1cc(C(F)(F)F)nc2c(C(F)(F)F)cccc12)[C@H]1CCCCN1 gave Potency 7.93 µM (fluorescent, partial curve).
CCCC1C(CC)=CC(CC)=CN1c1ccccc1 (centres unmarked) gave Potency 18.22 µM (rising, full curve).
c1cc(OCC2CO2)ccc1Cc1ccc(OCC2CO2)cc1 (centres unmarked) gave Potency 18.22 µM (fluorescent, full curve).
Nc1cc(Cl)c(-c2cc(Cl)c(N)cc2Cl)cc1Cl gave Potency 51.31 µM.
O=C(Nc1ccccc1)Nc1ccnc(Cl)c1 gave Potency 16.23 µM (rising, partial curve, poor fit).
CC(=O)CC(=O)OC(C)(C)C gave Potency 40.78 µM (falling, partial curve, poor fit).
O=C(c1ccccc1)c1ccc(O)cc1O gave Potency 20.44 µM (rising, partial curve).
CCc1cc(Cc2cc(CC)c(N)c(CC)c2)cc(CC)c1N gave Potency 11.49 µM (rising, full curve).
CC(C)(C)C1CCC(CC2=C(O)c3ccccc3C(=O)C2=O)CC1 (centres unmarked) gave Potency 1.12 µM (activator, full curve, poor fit).
CCCCC(CC)COC(=O)c1ccc(O)cc1 (centres unmarked) gave Potency 51.15 µM (single point).
CSc1ccc2c(c1)C(N1CCN(C)CC1)Cc1ccccc1S2 (centres unmarked) gave Potency 17.75 µM (rising, partial curve, poor fit).
Clc1ccc(CCC(Cn2ccnc2)Sc2c(Cl)cccc2Cl)cc1 (centres unmarked) gave Potency 22.35 µM (single point).
c1ccc(C(O[C@@H]2CCCN(CCc3ccc4c(c3)OCO4)C2)c2ccccc2)cc1 gave Potency 16.23 µM (fluorescent, full curve).
Oc1cc(Cl)ccc1Oc1ccc(Cl)cc1Cl gave Potency 40.57 µM (falling, partial curve).
CCOC(=O)OC1=C(c2cc(C)ccc2C)C(=O)NC12CCC(OC)CC2 (centres unmarked) gave Potency 32.37 µM (fluorescent, partial curve).
Cc1nnc2n1-c1sc(CCc3ccc(CC(C)C)cc3)cc1C(c1ccccc1Cl)=NC2C (centres unmarked) gave Potency 25.08 µM (single point).
CC(C)(O)c1cnn2c(-c3ccc(F)c(-c4c(F)cccc4C#N)c3)cnc2n1 gave Potency 32.39 µM (rising, partial curve).
C#CC1(O)CC[C@H]2[C@@H]3CCC4=CCCC[C@@H]4[C@H]3CC[C@@]21C (some centres unmarked) gave Potency 45.75 µM.
Cc1ccc(-c2c(Cl)nc(C#N)n2S(=O)(=O)N(C)C)cc1 gave Potency 22.92 µM (fluorescent, partial curve).
O=[N+]([O-])c1c(Cl)c(Cl)cc(Cl)c1Cl gave Potency 14.47 µM (rising, partial curve).
CN(C)c1ccc(Cc2ccc(N(C)C)cc2)cc1 gave Potency 22.93 µM (rising, partial curve).
O=S(=O)(O)c1ccccc1/C=C/c1ccc(-c2ccc(/C=C/c3ccccc3S(=O)(=O)O)cc2)cc1 gave Potency 36.85 µM (activator).
CCCCCCOc1ccccc1C(N)=O gave Potency 19.92 µM (rising, single point).
C[C@@H]1O[C@@H](O[C@@H]2C=C3CC[C@@H]4[C@H](CC[C@]5(C)[C@@H](c6ccc(=O)oc6)CC[C@]45O)[C@@]3(C)CC2)[C@H](O)[C@H](O)[C@H]1O gave Potency 0.0223 µM (rising, full curve).
O=C1NCN(c2ccccc2)C12CCN(CCCOc1ccc(F)cc1)CC2 gave Potency 2.508 µM (rising, full curve, poor fit).
CCc1c(C(=O)NN2CCCCC2)nn(-c2ccc(Cl)cc2Cl)c1-c1ccc(Br)cc1 gave Potency 16.23 µM (fluorescent, single point).
Cc1ccc([N+](=O)[O-])[c]2c1[O][Hg]2 gave Potency 12.57 µM.
O=C1c2ccccc2C(=O)N1SC1CCCCC1 gave Potency 18.22 µM (rising, partial curve).
Cc1cc2c(C(C)C)c(O)c(O)c(C=O)c2c(O)c1-c1c(C)cc2c(C(C)C)c(O)c(O)c(C=O)c2c1O gave Potency 19.92 µM (falling, partial curve).
CC/C(=C(/CC)c1ccc(O)cc1)c1ccc(O)cc1 gave Potency 11.4 µM (activator).
O=C1c2ccccc2C(=O)N1CCc1noc(-c2ccc(CN3CCCCCC3)s2)n1 gave Potency 41.95 µM (rising, single point).
CCCCC(CC)COC(=O)c1ccccc1C(=O)OCC(CC)CCCC (centres unmarked) gave Potency 4.078 µM.
C[C@H]1O[C@@H](O[C@H]2CC[C@@]3(C)[C@H](CC[C@@H]4[C@@H]3C[C@@H](O)[C@]3(C)[C@@H](C5=CC(=O)OC5)CC[C@]43O)C2)C[C@H](O)[C@@H]1O[C@H]1C[C@H](O)[C@H](O[C@H]2C[C@H](O)[C@H](O[C@@H]3O[C@H](CO)[C@@H](O)[C@H](O)[C@H]3O)[C@@H](C)O2)[C@@H](C)O1 gave Potency 0.2814 µM (rising, full curve).
CCCCCCCC[P+](CCCCCCCC)(CCCCCCCC)CCCCCCCC gave Potency 6.424 µM (cytotoxic, full curve).
S=c1[nH]c2ccccc2s1 gave Potency 20.44 µM (falling, partial curve, poor fit).
O=C(Nc1ccccc1)c1cc(Cl)ccc1O gave Potency 32.39 µM (activator, partial curve, poor fit).
CN(C)c1ccc(N=Nc2ccccc2C(=O)O)cc1 gave Potency 20.44 µM (fluorescent, full curve).
N#CCCC(Br)(C#N)CBr (centres unmarked) gave Potency 14.47 µM (rising, full curve, poor fit).
O=C1O[C@H]([C@H](O)CO)C(O)=C1O gave Potency 40.84 µM (falling, partial curve, poor fit).

For reference, 5 entries once more:

- O=C1c2ccccc2C(=O)N1SC1CCCCC1 | Potency 18.22 µM (rising, partial curve)
- Oc1cc(Cl)ccc1Oc1ccc(Cl)cc1Cl | Potency 40.57 µM (falling, partial curve)
- CCc1c(C(=O)NN2CCCCC2)nn(-c2ccc(Cl)cc2Cl)c1-c1ccc(Br)cc1 | Potency 16.23 µM (fluorescent, single point)
- CN(C)c1ccc(Cc2ccc(N(C)C)cc2)cc1 | Potency 22.93 µM (rising, partial curve)
- O=C1c2ccccc2C(=O)N1CCc1noc(-c2ccc(CN3CCCCCC3)s2)n1 | Potency 41.95 µM (rising, single point)

Data taken from PubChem BioAssay AID1963582, deposited by Tox21 (2024).